± gives the standard deviation of the averaged measurements. The list shows a part of the results.
Compound: Nc1nc2c(ncn2[C@@H]2O[C@H](COP(=O)(O)OP(=O)(O)OP(=O)(O)O)[C@@H](O)[C@H]2O)c(=O)[nH]1 [guanosine triphosphate]
Assay: NP40-soluble protein abundance relative to vehicle (solubility fold change) (ratio); higher = more soluble protein in presence of GTP
Description: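 Solubility proteome profiling in Jurkat crude lysate. Lysate was treated with Mg-GTP (0.1-10 mM) for 10 min at room temperature and 3 min at 37 °C, then solubilised with 0.8% NP40 and benzonase, followed by ultracentrifugation. Proteins were quantified by TMT10 LC-MS/MS; the value is the NP40-soluble abundance relative to the NP40-processed vehicle, from 3 independent experiments.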

Chains of the proteins cited; added tags and fusions are not shown. Lines headed by an entry give the natural chain unless they say otherwise; changes in a name come on top.
UniProt O60921: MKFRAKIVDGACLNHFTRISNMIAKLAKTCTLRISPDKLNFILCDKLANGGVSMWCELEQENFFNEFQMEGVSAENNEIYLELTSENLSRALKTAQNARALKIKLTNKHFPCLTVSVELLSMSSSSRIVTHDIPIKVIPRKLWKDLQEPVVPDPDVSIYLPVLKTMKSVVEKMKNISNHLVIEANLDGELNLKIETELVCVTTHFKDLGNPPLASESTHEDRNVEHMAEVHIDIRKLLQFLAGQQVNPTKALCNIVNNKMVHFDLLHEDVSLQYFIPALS
UniProt P04818: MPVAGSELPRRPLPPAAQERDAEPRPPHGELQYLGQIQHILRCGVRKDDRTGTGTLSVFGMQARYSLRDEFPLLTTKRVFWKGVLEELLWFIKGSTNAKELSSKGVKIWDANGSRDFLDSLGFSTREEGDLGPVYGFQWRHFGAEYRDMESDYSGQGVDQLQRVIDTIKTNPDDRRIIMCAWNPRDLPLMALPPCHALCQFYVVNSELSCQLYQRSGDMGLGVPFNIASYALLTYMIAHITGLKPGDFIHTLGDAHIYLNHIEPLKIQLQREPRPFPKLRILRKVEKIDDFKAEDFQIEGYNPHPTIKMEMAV
UniProt P07108: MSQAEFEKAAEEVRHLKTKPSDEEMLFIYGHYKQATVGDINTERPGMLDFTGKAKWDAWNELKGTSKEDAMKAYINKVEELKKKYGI
UniProt O95696: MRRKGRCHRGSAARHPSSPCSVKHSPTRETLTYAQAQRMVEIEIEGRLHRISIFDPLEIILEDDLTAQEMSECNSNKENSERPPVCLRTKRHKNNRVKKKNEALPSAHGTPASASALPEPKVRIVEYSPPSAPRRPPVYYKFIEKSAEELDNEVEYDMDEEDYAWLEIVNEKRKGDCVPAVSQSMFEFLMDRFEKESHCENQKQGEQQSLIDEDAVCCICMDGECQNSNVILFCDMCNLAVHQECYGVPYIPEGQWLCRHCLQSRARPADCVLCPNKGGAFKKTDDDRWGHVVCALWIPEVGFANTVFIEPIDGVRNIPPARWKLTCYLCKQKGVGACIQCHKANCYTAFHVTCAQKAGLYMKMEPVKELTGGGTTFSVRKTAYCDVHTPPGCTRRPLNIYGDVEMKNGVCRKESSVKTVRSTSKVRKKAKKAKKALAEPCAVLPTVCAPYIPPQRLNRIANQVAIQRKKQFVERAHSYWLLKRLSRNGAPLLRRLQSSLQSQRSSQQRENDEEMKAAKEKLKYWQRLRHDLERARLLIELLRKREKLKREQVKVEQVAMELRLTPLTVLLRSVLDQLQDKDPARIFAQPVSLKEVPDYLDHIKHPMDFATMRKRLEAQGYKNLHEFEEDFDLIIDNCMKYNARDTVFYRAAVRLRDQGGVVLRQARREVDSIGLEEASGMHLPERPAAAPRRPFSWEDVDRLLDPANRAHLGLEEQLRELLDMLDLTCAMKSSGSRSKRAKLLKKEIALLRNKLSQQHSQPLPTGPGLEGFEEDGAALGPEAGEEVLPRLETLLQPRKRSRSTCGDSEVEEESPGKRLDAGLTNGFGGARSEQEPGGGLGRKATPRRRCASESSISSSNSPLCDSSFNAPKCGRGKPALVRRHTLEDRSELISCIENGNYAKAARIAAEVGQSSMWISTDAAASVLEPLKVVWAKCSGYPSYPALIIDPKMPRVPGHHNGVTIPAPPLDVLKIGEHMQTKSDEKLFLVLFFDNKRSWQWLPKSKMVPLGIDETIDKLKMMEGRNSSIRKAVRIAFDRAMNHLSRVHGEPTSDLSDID
UniProt O95757: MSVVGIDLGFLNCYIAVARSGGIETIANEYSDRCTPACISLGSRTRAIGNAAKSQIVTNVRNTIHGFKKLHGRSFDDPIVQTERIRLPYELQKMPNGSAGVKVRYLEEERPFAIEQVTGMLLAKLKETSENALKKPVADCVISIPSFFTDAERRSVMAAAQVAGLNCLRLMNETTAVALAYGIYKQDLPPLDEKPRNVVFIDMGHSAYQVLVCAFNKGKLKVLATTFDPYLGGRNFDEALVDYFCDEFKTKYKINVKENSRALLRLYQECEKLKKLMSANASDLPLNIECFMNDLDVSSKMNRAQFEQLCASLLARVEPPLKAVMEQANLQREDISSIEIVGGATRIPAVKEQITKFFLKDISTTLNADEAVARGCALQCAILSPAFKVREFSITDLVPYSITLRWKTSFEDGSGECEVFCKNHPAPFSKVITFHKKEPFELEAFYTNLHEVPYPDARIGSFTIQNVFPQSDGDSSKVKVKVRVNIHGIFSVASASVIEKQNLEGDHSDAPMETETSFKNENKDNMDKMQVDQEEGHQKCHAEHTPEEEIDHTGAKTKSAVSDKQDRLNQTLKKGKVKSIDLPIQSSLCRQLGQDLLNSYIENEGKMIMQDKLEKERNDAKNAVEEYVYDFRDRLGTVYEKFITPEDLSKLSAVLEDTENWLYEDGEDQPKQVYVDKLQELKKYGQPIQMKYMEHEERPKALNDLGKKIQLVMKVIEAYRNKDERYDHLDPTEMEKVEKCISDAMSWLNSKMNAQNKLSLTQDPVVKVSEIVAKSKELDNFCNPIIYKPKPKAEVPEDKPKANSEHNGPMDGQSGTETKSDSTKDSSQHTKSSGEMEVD

Target	NP40-soluble protein abundance (concentration: 0.1mM)	NP40-soluble protein abundance (concentration: 0.5mM)	NP40-soluble protein abundance (concentration: 1mM)	NP40-soluble protein abundance (concentration: 2mM)	NP40-soluble protein abundance (concentration: 4mM)	NP40-soluble protein abundance (concentration: 6mM)	NP40-soluble protein abundance (concentration: 8mM)	NP40-soluble protein abundance (concentration: 10mM)
UniProt O60921 and related entries	1.2 ± 0.32	1.12 ± 0.27	1.12 ± 0.19	1.11 ± 0.18	1.03 ± 0.24	1.03 ± 0.14	1.05 ± 0.22	1.02 ± 0.22
TYMS (UniProt P04818)	0.939 ± 0.027	0.967 ± 0.04	0.916 ± 0.048	0.898 ± 0.015	0.855 ± 0.029	0.879 ± 0.027	0.831 ± 0.057	0.844 ± 0.057
DBI (UniProt P07108)	0.967 ± 0.029	0.969 ± 0.08	0.985 ± 0.073	0.982 ± 0.089	0.937 ± 0.073	0.988 ± 0.11	1.05 ± 0.067	1.08 ± 0.069
UniProt O95696 and related entries	0.934 ± 0.17	0.983 ± 0.14	1.02 ± 0.1	1.08 ± 0.085	1.06 ± 0.17	1.08 ± 0.17	1.08 ± 0.17	1.18 ± 0.14
HSPA4L (UniProt O95757)	0.972 ± 0.053	0.975 ± 0.05	0.974 ± 0.048	0.926 ± 0.055	0.926 ± 0.053	0.921 ± 0.057	0.944 ± 0.058	0.931 ± 0.059
